Results taken from article PMC12519261.
Results are given in words; binding and its absence hold for the method and conditions named. Some entries that bind do so weakly or less than the wild type.

The chains behind the UniProt entries cited, without tags or fusion partners. Residues count along the entry.
UniProt Q07021, residues 74-282: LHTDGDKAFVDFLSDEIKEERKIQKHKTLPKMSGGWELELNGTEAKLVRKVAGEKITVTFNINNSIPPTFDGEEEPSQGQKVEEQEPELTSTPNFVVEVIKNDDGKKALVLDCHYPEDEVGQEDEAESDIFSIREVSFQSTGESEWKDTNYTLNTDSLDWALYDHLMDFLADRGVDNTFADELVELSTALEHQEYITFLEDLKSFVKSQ

Target: recombinant p32 protein (UniProt Q07021)
Experiment: pull-down; Ni-NTA magnetic agarose beads coated with p32 (15 ug protein/10 uL beads); fluorescent HLPNs incubated 1 h at room temperature without uPA; 0.05% Tween-20 and 5 mM imidazole in PBS pH 7.4; eluted with 400 mM imidazole, fluorescence of the eluate read; both purified

binding: binds
Binder: AKRGARSTA (FAM (carboxyfluorescein) label; conjugated to the surface of HLPNs) [LinTT1 peptide (FAM-labeled) conjugated to hybrid lipid-polymer nanoparticles (LinTT1-HLPNs)]
